This passage reports binding results from publication PMC10410066.

These are yes or no findings as the source states them, for the method shown. Binding calls can cover weak binding; strength is not graded here. Sequences can lack the tags named with a protein. For some of these results: Binding seen in cells or lysates may run through a third protein.

Assay [1] has as its target N571 Q55 HTT (N-terminal huntingtin fragment 1-571 with 55 glutamines) (human). The assay is described as follows: ELISA; 2B7 (HTT N17) as capture antibody on the plate, anti-FLAG-D2 as detection antibody; lysates of HEK293T cells co-expressing N571 Q55 HTT and FLAG-tagged kinase; 1 h at RT; read on the Erenna Immunoassay System.
For assay [2] the target is unchanged. The assay is described as follows: FRET or BRET; TR-FRET protein-protein interaction assay on lysates of co-transfected HEK293T cells; antibody pair 2B7-Tb (HTT N17) / anti-FLAG-D2.

B1: inhibitor of nuclear factor kappa B kinase subunit beta (IKBKB), FLAG-tagged (enzyme, UniProt O14920 1-756)
chain: MSWSPSLTTQTCGAWEMKERLGTGGFGNVIRWHNQETGEQIAIKQCRQELSPRNRERWCLEIQIMRRLTHPNVVAARDVPEGMQNLAPNDLPLLAMEYCQGGDLRKYLNQFENCCGLREGAILTLLSDIASALRYLHENRIIHRDLKPENIVLQQGEQRLIHKIIDLGYAKELDQGSLCTSFVGTLQYLAPELLEQQKYTVTVDYWSFGTLAFECITGFRPFLPNWQPVQWHSKVRQKSEVDIVVSEDLNGTVKFSSSLPYPNNLNSVLAERLEKWLQLMLMWHPRQRGTDPTYGPNGCFKALDDILNLKLVHILNMVTGTIHTYPVTEDESLQSLKARIQQDTGIPEEDQELLQEAGLALIPDKPATQCISDGKLNEGHTLDMDLVFLFDNSKITYETQISPRPQPESVSCILQEPKRNLAFFQLRKVWGQVWHSIQTLKEDCNRLQQGQRAAMMNLLRNNSCLSKMKNSMASMSQQLKAKLDFFKTSIQIDLEKYSEQTEFGITSDKLLLAWREMEQAVELCGRENEVKLLVERMMALQTDIVDLQRSPMGRKQGGTLDDLEEQARELYRRLREKPRDQRTEGDSQEMVRLLLQAIQSFEKKVRVIYTQLSKTVVCKQKALELLPKVEEVVSLMNEDEKTVVRLQEKRQKELWNLLKIACSKVRGPVSGSPDSMNASRLSQPGQLMSQPSTASNSLPEPAKKSEELVAEAHNLCTLLENAIQDTVREQDQSFTALDWSWLQTEEEEHSCLEQAS
In the case of B1, the binding result in assay [1] and in assay [2] was “binds” throughout.

B2: IKBKB S177E/S181E mutant, FLAG-tagged (enzyme, UniProt O14920 1-756)
chain: MSWSPSLTTQTCGAWEMKERLGTGGFGNVIRWHNQETGEQIAIKQCRQELSPRNRERWCLEIQIMRRLTHPNVVAARDVPEGMQNLAPNDLPLLAMEYCQGGDLRKYLNQFENCCGLREGAILTLLSDIASALRYLHENRIIHRDLKPENIVLQQGEQRLIHKIIDLGYAKELDQGELCTEFVGTLQYLAPELLEQQKYTVTVDYWSFGTLAFECITGFRPFLPNWQPVQWHSKVRQKSEVDIVVSEDLNGTVKFSSSLPYPNNLNSVLAERLEKWLQLMLMWHPRQRGTDPTYGPNGCFKALDDILNLKLVHILNMVTGTIHTYPVTEDESLQSLKARIQQDTGIPEEDQELLQEAGLALIPDKPATQCISDGKLNEGHTLDMDLVFLFDNSKITYETQISPRPQPESVSCILQEPKRNLAFFQLRKVWGQVWHSIQTLKEDCNRLQQGQRAAMMNLLRNNSCLSKMKNSMASMSQQLKAKLDFFKTSIQIDLEKYSEQTEFGITSDKLLLAWREMEQAVELCGRENEVKLLVERMMALQTDIVDLQRSPMGRKQGGTLDDLEEQARELYRRLREKPRDQRTEGDSQEMVRLLLQAIQSFEKKVRVIYTQLSKTVVCKQKALELLPKVEEVVSLMNEDEKTVVRLQEKRQKELWNLLKIACSKVRGPVSGSPDSMNASRLSQPGQLMSQPSTASNSLPEPAKKSEELVAEAHNLCTLLENAIQDTVREQDQSFTALDWSWLQTEEEEHSCLEQAS
As to B2, the binding entry in assay [1] is “binds”.

B3: IKBKB kinase-dead mutant (IKBKB KD, K44M), FLAG-tagged (enzyme, UniProt O14920 1-756)
chain: MSWSPSLTTQTCGAWEMKERLGTGGFGNVIRWHNQETGEQIAIMQCRQELSPRNRERWCLEIQIMRRLTHPNVVAARDVPEGMQNLAPNDLPLLAMEYCQGGDLRKYLNQFENCCGLREGAILTLLSDIASALRYLHENRIIHRDLKPENIVLQQGEQRLIHKIIDLGYAKELDQGSLCTSFVGTLQYLAPELLEQQKYTVTVDYWSFGTLAFECITGFRPFLPNWQPVQWHSKVRQKSEVDIVVSEDLNGTVKFSSSLPYPNNLNSVLAERLEKWLQLMLMWHPRQRGTDPTYGPNGCFKALDDILNLKLVHILNMVTGTIHTYPVTEDESLQSLKARIQQDTGIPEEDQELLQEAGLALIPDKPATQCISDGKLNEGHTLDMDLVFLFDNSKITYETQISPRPQPESVSCILQEPKRNLAFFQLRKVWGQVWHSIQTLKEDCNRLQQGQRAAMMNLLRNNSCLSKMKNSMASMSQQLKAKLDFFKTSIQIDLEKYSEQTEFGITSDKLLLAWREMEQAVELCGRENEVKLLVERMMALQTDIVDLQRSPMGRKQGGTLDDLEEQARELYRRLREKPRDQRTEGDSQEMVRLLLQAIQSFEKKVRVIYTQLSKTVVCKQKALELLPKVEEVVSLMNEDEKTVVRLQEKRQKELWNLLKIACSKVRGPVSGSPDSMNASRLSQPGQLMSQPSTASNSLPEPAKKSEELVAEAHNLCTLLENAIQDTVREQDQSFTALDWSWLQTEEEEHSCLEQAS
As to B3, in assay [1], the binding entry is “binds”.
